# PubChem BioAssay AID1259405, NCATS, 2018
# Screen: 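Silenced genes that increase secreted GFP made by CHO cells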 (primary screen)
# System: Chinese hamster CHO-K1 ovary cells with stable secreted eGFP expression
# Reagent: single siRNA against mouse genes, 0.8 pmol siRNA per well (2 µl of 400 nM stock)
# Duration: 3 days
# Measurement: 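Percent of the per-plate non-targeting control median for intracellular GFP per well by laser scanning cytometry and for cell viability by ATP luminescence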
# Reading the numbers: GFP, % of control: higher = more GFP per well, higher productivity; viability (ATP), % of control: higher = more viable cells (more ATP)
# Active means: 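Called active when intracellular GFP, relative to negative control, is at or above 120%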
# The deposit covers about 50,000 reagents; this is a part drawn at random. About 4,000 of all reagents (8%) count as active. 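Mouse siRNA library applied to hamster cells; one well for each siRNA.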 Entries without a mark were called inactive. The numbers tell different reagents against one gene apart.
target gene,siRNA no.,"GFP, % of control","viability (ATP), % of control"
Dlg3,1,50.3,87.1
Dlg3,2,101,91.1
A230052G05Rik,1,47.2,47.1
A230052G05Rik,2,49.1,104
A230052G05Rik,3,82.4,96.1
Gpr20,1,105,82.3
Gpr20,2,76.3,62.3
Gpr20,3,98.9,86.1
Adam6a,1,102,117
Adam6a,2,67.4,68.4
Adam6a,3,44.3,64.9
Nlrp4f,1,114,127
Nlrp4f,2,68.6,73.5
Nlrp4f,3,84.9,120
Nsrp1,1,79.3,60.5
Nsrp1,2,64.2,87.6
Nsrp1,3,101,74.1
Cnot6l,1,70.9,62
Cnot6l,2,53.4,41.8
Cnot6l,3,90.4,118
Naa25,1,132 (active),100
Naa25,2,77.8,85.1
Naa25,3,46.8,51.7
Or2ag2b,1,56,61
Or2ag2b,2,72.5,63.9
Or2ag2b,3,101,80
Tc2n,1,55.8,76.5
Tc2n,2,74.2,68

In a second layout: results already given
{"target gene": "Adam6a", "siRNA no.": 3, "GFP, % of control": 44.3, "viability (ATP), % of control": 64.9}
{"target gene": "Nlrp4f", "siRNA no.": 1, "GFP, % of control": 114, "viability (ATP), % of control": 127}
{"target gene": "Nlrp4f", "siRNA no.": 2, "GFP, % of control": 68.6, "viability (ATP), % of control": 73.5}

Further records follow:
target gene,siRNA no.,"GFP, % of control","viability (ATP), % of control"
Rhot1,1,83.7,86.9
Rhot1,2,68.9,72.4
Rhot1,3,164 (active),62
Krt77,1,56.8,58.5
Krt77,2,115,40.7
Sim1,1,102,110
Sim1,2,97.2,91.1
Sim1,3,95.6,113
Ace2,1,87.9,71.3
Ace2,2,47.2,57.6
Ace2,3,80.7,79.1
Dnajc6,1,163 (active),77.1
Dnajc6,2,85.8,69.8
Dnajc6,3,106,94.2
Ckap5,1,47.1,61.8
Ckap5,2,67.2,75.1
Ckap5,3,80.2,75.9
Pex11a,1,93.7,53.1
Pex11a,2,91.9,78.8
Pex11a,3,60.1,62.8
Tas2r126,1,70.2,104
Tas2r126,2,99.1,83.4
Tas2r126,3,42.1,65.6
Derl1,1,75,93.7
Derl1,2,79.9,69.7
Derl1,3,64.8,88.9
Uchl5,1,94.3,114
Uchl5,2,55,51.1
Uchl5,3,41.4,56.7
